Measured values from paper PMC11489178.
These are yes or no findings as the source states them, for the method shown. Binding seen in cells or lysates may run through a third protein. Some binding calls cover weakened binding; strength is not graded here. For part of these data: Where a sequence is shown, tags or fusion partners need not be part of it.

Assays:
Conditions in all cases: remark: other sources report otherwise
[1] = target: HSPD1 (endogenous) (human (endogenous in MNNG/HOS)), P10809; test: co-IP; endogenous proteins, MNNG/HOS cells lysed in IP buffer (Beyotime); IP with anti-HSPD1 or anti-ATP5A1 antibody, normal IgG as negative control; protein A/G plus agarose beads; Western blot
[2] = target: T1, ATP5A1 (endogenous) (human (endogenous in MNNG/HOS)), P25705; test: as above
T1 chain: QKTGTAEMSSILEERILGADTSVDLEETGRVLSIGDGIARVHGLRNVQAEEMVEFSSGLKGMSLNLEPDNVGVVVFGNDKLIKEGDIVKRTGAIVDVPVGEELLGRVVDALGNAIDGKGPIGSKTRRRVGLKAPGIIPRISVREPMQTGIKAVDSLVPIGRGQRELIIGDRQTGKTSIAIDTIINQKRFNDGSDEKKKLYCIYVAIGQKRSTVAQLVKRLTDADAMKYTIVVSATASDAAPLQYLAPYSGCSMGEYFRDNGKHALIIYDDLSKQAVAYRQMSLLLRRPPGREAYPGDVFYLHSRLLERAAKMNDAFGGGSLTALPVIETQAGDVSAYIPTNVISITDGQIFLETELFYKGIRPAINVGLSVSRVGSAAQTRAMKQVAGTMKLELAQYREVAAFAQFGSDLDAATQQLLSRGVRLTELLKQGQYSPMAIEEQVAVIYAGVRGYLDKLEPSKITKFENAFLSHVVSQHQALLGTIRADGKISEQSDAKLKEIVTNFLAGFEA

Flag-HSPD1, P10809 = test: co-IP; HEK-293T cells transfected with Flag-HSPD1 and HA-ATP5A1 plasmids; IP, protein A/G plus agarose beads; Western blot

B1: ATP5A1 (endogenous), P25705 44-553 (protein)
chain: T1 chain
[1]
  binding: binds

B2: HSPD1 (endogenous), P10809 27-573 (protein)
chain: AKDVKFGADARALMLQGVDLLADAVAVTMGPKGRTVIIEQSWGSPKVTKDGVTVAKSIDLKDKYKNIGAKLVQDVANNTNEEAGDGTTTATVLARSIAKEGFEKISKGANPVEIRRGVMLAVDAVIAELKKQSKPVTTPEEIAQVATISANGDKEIGNIISDAMKKVGRKGVITVKDGKTLNDELEIIEGMKFDRGYISPYFINTSKGQKCEFQDAYVLLSEKKISSIQSIVPALEIANAHRKPLVIIAEDVDGEALSTLVLNRLKVGLQVVAVKAPGFGDNRKNQLKDMAIATGGAVFGEEGLTLNLEDVQPHDLGKVGEVIVTKDDAMLLKGKGDKAQIEKRIQEIIEQLDVTTSEYEKEKLNERLAKLSDGVAVLKVGGTSDVEVNEKKDRVTDALNATRAAVEEGIVLGGGCALLRCIPALDSLTPANEDQKIGIEIIKRTLKIPAMTIAKNAGVEGSLIVEKIMQSSSEVGYDAMAGDFVNMVEKGIIDPTKVVRTALLDAAGVASLLTTAEVVVTEIPKEEKDPGMGAMGGMGGGMGGGMF
[2]
  binding: binds

B3: HA-ATP5A1, P25705 44-553 (protein)
chain: T1 chain
Flag-HSPD1, P10809
  binding: binds
